# Data published in patent US9126994B2, “Crystalline form of a quinolinone-carboxamide compound” (Theravance Biopharma R&D IP, LLC, priority 2005, dated 2015).
# Protein sequences, listed by entry. Tags and fused reporters are not part of them. Lines headed by an entry give the natural chain unless they say otherwise; changes in a name come on top.
# UniProt Q12809: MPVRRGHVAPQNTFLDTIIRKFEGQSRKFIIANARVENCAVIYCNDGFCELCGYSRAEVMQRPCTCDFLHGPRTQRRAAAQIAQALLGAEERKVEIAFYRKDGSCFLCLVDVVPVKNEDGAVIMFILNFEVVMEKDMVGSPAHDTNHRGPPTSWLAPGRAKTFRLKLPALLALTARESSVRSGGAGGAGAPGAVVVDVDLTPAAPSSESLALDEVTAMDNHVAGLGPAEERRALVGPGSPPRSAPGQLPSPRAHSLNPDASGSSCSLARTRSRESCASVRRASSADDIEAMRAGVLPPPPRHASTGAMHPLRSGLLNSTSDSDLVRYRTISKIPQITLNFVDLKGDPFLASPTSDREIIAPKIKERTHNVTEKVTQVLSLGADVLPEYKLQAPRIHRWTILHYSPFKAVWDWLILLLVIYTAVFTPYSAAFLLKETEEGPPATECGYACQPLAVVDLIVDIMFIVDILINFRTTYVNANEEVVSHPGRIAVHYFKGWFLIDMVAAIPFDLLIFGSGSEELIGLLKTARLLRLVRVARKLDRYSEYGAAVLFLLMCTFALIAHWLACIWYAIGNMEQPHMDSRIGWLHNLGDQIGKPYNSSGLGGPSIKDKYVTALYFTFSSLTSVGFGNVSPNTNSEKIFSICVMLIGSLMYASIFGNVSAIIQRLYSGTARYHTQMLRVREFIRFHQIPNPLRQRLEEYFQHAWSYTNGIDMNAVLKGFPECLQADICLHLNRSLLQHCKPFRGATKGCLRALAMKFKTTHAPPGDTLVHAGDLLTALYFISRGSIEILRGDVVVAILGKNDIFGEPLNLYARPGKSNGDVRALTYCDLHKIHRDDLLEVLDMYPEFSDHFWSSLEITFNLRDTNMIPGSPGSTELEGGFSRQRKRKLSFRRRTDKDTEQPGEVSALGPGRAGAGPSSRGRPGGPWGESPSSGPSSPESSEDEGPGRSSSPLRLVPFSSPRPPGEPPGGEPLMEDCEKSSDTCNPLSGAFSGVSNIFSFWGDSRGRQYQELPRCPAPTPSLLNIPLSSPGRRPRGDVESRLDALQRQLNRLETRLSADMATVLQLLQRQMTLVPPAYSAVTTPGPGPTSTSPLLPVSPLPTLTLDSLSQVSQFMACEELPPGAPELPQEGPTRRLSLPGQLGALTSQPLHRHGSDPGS
# How the values were obtained:
# Caco-2 cell monolayer = conditions: human, Caco-2, 1 h
# [1] = molecular target: hERG cardiac potassium channel (Homo sapiens, UniProt Q12809); experiment: in vitro; conditions: pH 7.4
# [2] = male Sprague-Dawley rats; blood plasma; dosing PO 5 mg/kg (IV 2.5 mg/kg), route not restated at the value
# Description: Assay 6: Pharmacokinetic Study in the Rat
# Aqueous solution formulations of test compounds were prepared in 0.1% lactic acid at a pH of between about 5 and about 6. Male Sprague-Dawley rats (CD strain, Charles River Laboratories, Wilmington, Mass.) were dosed with test compounds via intravenous administration (IV) at a dose of 2.5 mg/kg or by oral gavage (PO) at a dose of 5 mg/kg. The dosing volume was 1 mL/kg for IV and 2 mL/kg for PO administration. Serial blood samples were collected from animals pre-dose, and at 2 (IV only), 5, 15, and 30 min, and at 1, 2, 4, 8, and 24 hours post-dose.
# Standard pharmacokinetic parameters were assessed by non-compartmental analysis (Model 201 for IV and Model 200 for PO) using WinNonlin (Version 4.0.1, Pharsight, Mountain View, Calif.). The maximum in the curve of test compound concentration in blood plasma vs. time is denoted Cmax.
smiles,measurement,setting,value
"CC(C)n1c(=O)c(C(=O)N[C@H]2C[C@H]3CC[C@@H](C2)N3C[C@@H](O)CN(C)S(C)(=O)=O)cc2ccccc21 [compound of formula I, 1-isopropyl-2-oxo-1,2-dihydroquinoline-3-carboxylic acid {(1S,3R,5R)-8-[(R)-2-hydroxy-3-(methanesulfonyl-methyl-amino)propyl]-8-azabicyclo[3.2.1]oct-3-yl}amide]",permeation coefficient Kp,Caco-2 cell monolayer,greater than 20×10^−6 cm/sec
same,inhibition at 3 µM,[1],< 15%
same,AUC(0−t),[2],0.46 µg·h/mL
